Here are results for one sequence from paper PMC5996148.

Chains of the proteins cited; added tags and fusions are not shown. Lines headed by an entry give the natural chain unless they say otherwise; changes in a name come on top.
UniProt Q8NEY1: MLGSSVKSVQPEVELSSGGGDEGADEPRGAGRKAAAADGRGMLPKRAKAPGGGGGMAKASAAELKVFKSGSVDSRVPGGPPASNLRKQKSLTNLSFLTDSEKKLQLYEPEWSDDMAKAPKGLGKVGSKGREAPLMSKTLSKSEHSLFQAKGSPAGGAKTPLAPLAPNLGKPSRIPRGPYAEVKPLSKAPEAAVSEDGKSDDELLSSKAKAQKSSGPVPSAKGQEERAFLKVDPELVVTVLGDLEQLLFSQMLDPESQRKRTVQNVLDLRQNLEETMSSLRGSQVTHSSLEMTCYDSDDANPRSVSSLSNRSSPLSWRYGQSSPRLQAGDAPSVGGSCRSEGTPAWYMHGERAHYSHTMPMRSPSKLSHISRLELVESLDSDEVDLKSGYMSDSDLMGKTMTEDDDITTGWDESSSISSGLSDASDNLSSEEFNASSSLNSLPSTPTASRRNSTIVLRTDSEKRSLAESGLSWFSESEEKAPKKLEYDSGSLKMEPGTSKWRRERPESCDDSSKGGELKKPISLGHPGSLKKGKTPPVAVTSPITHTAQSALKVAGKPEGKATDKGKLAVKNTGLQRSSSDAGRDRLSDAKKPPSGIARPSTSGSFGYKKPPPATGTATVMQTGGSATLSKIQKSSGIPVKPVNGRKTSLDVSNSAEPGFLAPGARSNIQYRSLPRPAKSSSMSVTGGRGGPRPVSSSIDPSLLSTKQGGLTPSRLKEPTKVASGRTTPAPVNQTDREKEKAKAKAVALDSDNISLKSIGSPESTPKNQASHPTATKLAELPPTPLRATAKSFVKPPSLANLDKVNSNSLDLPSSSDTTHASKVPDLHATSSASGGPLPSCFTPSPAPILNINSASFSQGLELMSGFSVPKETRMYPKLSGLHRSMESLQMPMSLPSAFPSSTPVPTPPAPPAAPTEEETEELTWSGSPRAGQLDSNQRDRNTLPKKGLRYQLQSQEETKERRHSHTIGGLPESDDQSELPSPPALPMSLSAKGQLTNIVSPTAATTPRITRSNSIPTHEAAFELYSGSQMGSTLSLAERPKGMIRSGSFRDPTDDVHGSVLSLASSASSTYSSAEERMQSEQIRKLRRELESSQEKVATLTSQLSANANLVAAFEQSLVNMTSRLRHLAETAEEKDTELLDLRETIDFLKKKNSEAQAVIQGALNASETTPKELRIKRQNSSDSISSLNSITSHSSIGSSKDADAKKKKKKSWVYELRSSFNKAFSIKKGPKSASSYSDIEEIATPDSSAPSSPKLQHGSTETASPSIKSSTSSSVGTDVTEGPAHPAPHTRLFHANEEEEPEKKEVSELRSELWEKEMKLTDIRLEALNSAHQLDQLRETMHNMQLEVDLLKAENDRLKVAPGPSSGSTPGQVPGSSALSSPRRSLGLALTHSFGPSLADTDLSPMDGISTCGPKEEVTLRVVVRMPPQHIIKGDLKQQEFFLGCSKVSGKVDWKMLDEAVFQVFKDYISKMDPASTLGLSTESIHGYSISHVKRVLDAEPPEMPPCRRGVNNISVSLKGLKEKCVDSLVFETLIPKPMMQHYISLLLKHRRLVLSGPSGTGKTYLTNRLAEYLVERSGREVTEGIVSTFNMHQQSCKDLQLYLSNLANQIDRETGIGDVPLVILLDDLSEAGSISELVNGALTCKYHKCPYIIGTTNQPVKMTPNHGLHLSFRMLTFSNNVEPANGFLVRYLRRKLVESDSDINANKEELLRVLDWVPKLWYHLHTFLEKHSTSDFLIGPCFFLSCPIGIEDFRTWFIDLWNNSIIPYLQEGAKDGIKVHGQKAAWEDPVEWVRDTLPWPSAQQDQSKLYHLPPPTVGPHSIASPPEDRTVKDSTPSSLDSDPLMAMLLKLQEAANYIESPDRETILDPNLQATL
UniProt O43676, whole entry: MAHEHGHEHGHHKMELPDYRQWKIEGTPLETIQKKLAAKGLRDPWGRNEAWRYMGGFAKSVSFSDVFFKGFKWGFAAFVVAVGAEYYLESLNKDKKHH

Where “and” joins values, the source holds several entries; their conditions need not be identical. Equal entries are not always repeated. The list shows a part of the results. For some assays here: Construct or isoform of the protein are uncertain.

Test systems include NA (human); NAGK (human); NAPG (human); NAPRT1 (human); NASP (human); NBPF1 (human); NBPF22P (human); NCBP1 (human); NCOA4 (human); NDRG4 (human); NDUFA4 (human); NDUFA5 (human); NDUFB1 (human); NETO1 (human); NFE2 (human).
What all share (assay): protein microarray (ProtoArray v5.0), streptavidin-Alexa Fluor 647
Conditions in all cases: 3'-biotin; 20 mM Tris (pH 7.5), 5 mM MgCl2, 100 mM KCl, 0.1% Tween-20, A/T-rich and random oligonucleotide blockers; temperature not stated; high values mean tight binding

The test system of test [1] is Myosin light chain 2, lymphocyte-specific (human).
Test [2] has as its system Myosin light chain kinase, smooth muscle (human).
The next test addresses NAV1 (UniProt Q8NEY1).
The target of a further test is NDUFB3 (UniProt O43676).
The subject of test [3] is NEDD8-activating enzyme E1 catalytic subunit (human).

On to “GGTGACAGGGGTATGGGGAGGGG [G4-2 biotinylated (Ct1)]”, for which the binding signal is -0.383 z-score in test [1]; -0.398 z-score in test [2]; 5.69 z-score with NA (human); -0.389 z-score with NAGK (human); -0.387 z-score with NAPG (human); -0.389 z-score in the test on NAPRT1 (human). For the same sequence, the binding signal is -0.39 z-score in the test on NASP (human); -0.394 z-score with NAV1; -0.389 z-score in the test on NBPF1 (human); -0.4 z-score with NBPF22P (human); -0.375 z-score in the test with NCBP1 (human); -0.38 z-score with NCOA4 (human). Besides, the binding signal is -0.402 z-score and -0.392 z-score in the test on NDRG4 (human); -0.377 z-score in the test with NDUFA4 (human); -0.398 z-score in the test with NDUFA5 (human); -0.388 z-score in the test on NDUFB1 (human); -0.389 z-score with NDUFB3; -0.391 z-score in [3]. The binding signal is -0.385 z-score in the test on NETO1 (human) and -0.361 z-score in the test on NFE2 (human).
